Here are results for six molecules from patent EP4628505A1 (Genor Biopharma Co., Ltd., dated 2025).

Numbering of substitutions follows the chain as printed. Results are given in words; binding and its absence hold for the method and conditions named. Some entries that bind do so weakly or less than the wild type.

For this experiment, the target named is T1, cynomolgus monkey CTLA4 (Acro Biosystem, Catlog #Ct4-C82E5) (cynomolgus monkey (Macaca fascicularis)) (UniProt G7PL88).
T1 sequence: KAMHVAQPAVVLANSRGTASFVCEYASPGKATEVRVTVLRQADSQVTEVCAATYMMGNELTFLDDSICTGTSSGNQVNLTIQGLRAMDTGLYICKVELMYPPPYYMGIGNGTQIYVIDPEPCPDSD
The experiment is described as follows: ELISA, plate coated with 1 ug/ml cynomolgus monkey CTLA4. (In general: An ELISA detects its analyte on a solid surface through an enzyme-linked reagent.)

B1: GBD008-hS005-3 (antibody, V domains shown)
VH: EVQLVESGGGLVQPGGSLRLSCAASGRTASSNAMAWVRQAPGKEREFVSAISATGGLTAYADSVKGRFTISRDNSKNTLYLQMNSLRAEDTAVYYCAVGRERWYLRHTENEYDYWGQGTLVTVSS
notes: Humanized heavy chain-only antibody (VHH-Fc), no light chain
Take B1: the binding result is “binds”.

B2: GBD008-hS005-3-2 (antibody, V domains shown)
VH: B1 VH with V37F
notes: as for B1
B2: the binding result is “binds”.

B3: GBD008-S019 (antibody, V domains shown)
VH: QVQLVESGGGLVQPGGSLTLSCAASGFTFSSYTMAWYRQAPGKEREVVAGISRSGGTTNYGDSVKGRFTISRDNAKNTVYLQMNSLKPEDTAVYYCRAVSDYWGQGTQVTVSS
notes: Heavy chain-only antibody (VHH-Fc), no light chain; also called GBD008-5019
As to B3, the binding entry is recorded as “binds”.

B4: GBD008-hS019-4 (antibody, V domains shown)
VH: B3 VH with Q1E, V5L, T19R, A75S, V79L, K87R, P88A, Q108L
notes: as for B1
Consider B4, for which the binding entry is “binds”.

B5: GBD008-S004 (antibody, V domains shown)
VH: EVQLVESGGGLVQAGGSLRLSCLASGRTFSSYDMGWFRQAPGKEREFVAAISWGGVNTYYADSVKGRFTISRDNAKNTVYLQMNSLKPEDTAVYYCARGSAPYSSSRSSAQETYAQWGQGTQVTVSS
notes: Heavy chain-only antibody (VHH-Fc), no light chain
Turning to B5, the binding result is given as “binds”.

B6: GBD008-hS004-5 (antibody, V domains shown)
VH: B5 VH with A14P, L23A, V79L, K87R, P88A, Q122L
notes: as for B1
B6: the binding result is “binds”.
